# Data reported in PMC12700831.
# By UniProt entry, the sequences of proteins in these tests, tags left out.
# UniProt Q5TEA3: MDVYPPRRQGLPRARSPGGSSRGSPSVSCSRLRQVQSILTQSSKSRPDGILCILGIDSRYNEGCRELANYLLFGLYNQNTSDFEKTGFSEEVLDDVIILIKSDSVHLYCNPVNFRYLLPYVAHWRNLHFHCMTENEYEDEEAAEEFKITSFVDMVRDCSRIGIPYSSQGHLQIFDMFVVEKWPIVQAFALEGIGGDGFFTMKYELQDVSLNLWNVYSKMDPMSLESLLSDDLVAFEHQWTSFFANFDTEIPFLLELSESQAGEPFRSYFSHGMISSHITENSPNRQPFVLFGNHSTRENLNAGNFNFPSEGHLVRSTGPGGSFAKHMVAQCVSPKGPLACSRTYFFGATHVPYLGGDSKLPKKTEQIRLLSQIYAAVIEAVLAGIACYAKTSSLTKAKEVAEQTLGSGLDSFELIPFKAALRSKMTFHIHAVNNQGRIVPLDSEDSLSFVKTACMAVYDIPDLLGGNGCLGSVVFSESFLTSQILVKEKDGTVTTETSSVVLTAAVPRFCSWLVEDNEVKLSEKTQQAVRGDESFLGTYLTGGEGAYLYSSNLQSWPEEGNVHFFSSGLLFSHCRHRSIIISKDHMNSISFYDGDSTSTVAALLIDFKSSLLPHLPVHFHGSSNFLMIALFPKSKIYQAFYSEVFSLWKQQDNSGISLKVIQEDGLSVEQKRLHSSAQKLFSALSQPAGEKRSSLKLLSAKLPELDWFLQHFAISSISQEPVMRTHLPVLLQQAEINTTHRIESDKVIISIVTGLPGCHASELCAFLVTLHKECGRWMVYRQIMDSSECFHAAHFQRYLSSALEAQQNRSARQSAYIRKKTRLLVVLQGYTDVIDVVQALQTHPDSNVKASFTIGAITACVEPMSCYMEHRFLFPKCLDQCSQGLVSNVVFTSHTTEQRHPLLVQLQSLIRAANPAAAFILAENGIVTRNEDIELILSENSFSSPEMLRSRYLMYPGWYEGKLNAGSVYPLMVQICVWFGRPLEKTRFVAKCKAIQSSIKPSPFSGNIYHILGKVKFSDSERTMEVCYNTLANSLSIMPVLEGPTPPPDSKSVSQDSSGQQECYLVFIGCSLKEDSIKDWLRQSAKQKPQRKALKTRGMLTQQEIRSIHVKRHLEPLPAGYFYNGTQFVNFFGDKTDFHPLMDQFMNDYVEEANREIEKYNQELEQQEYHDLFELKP
# These are yes or no findings as the source states them, for the method shown. In cells and extracts the contact can be indirect. A yes stands for co-enrichment or nearness to the bait. Other partners may have been found.
# B1: ENKUR (protein, UniProt Q8TC29 1-256)
# chain: MDPTCSSECIYNLIPSDLKEPPQPPRYISIFKATVKDDMQKAKTAMKTMGPAKVEVPSPKDFLKKHSKEKTLPPKKNFDRNVPKKPAVPLKTDHPVMGIQSGKNFINTNAADIIMGVAKKPKPIYVDKRTGDKHDLEPSGLVPKYINKKDYGVTPEYICKRNEEIKKAQEDYDRYIQENLKKAAMKRLSDEEREAVLQGLKKNWEEVHKEFQSLSVFIDSIPKKIRKQRLEEEMKQLEHDIGIIEKHKIIYIANNA
# B2: ODAD1 (protein, UniProt Q96M63 1-670)
# chain: MEGERRAYSKEVHQRINKQLEEIRRLEEVRGDLQVQISAAQNQVKRLRDSQRLENMDRLLKGRAQVQAEIEELQEQTRALDKQIQEWETRIFTHSKNVRSPGFILDQKVKIRRRIRILENQLDRVTCHFDNQLVRNAALREELDLLRIDRNRYLNVDRKLKKEIHHLHHLVSTLILSSTSAYAVREEAKAKMGLLRERAEKEEAQSEMEAQVLQRQILHLEQLHHFLKLKNNDRQPDPDVLEKREKQAGEVAEGVWKTSQERLVLCYEDALNKLSQLMGESDPDLLVQKYLEIEERNFAEFNFINEQNLELEHVQEEIKEMQEALVSARASKDDQHLLQEQQQKVLQQRMDKVHSEAERLEARFQDVRGQLEKLKADIQLLFTKAHCDSSMIDDLLGVKTSMGDRDMGLFLSLIEKRLVELLTVQAFLHAQSFTSLADAALLVLGQSLEDLPKKMAPLQPPDTLEDPPGFEASDDYPMSREELLSQVEKLVELQEQAEAQRQKDLAAAAAKLDGTLSVDLASTQRAGSSTVLVPTRHPHAIPGSILSHKTSRDRGSLGHVTFGGLSSSTGHLPSHITHGDPNTGHVTFGSTSASSGGHVTFRPVSASSYLGSTGYVGSSRGGENTEGGVESGGTASDSSGGLGSSRDHVSSTGPASSTGPGSSTSKDSRG
# B3: CCDC17 (protein, UniProt Q96LX7 1-622)
# chain: MDSHSGEPALLPCGTCDMVFRSSALLATHTQRFCIGHPTQEMTFGAQASVATEPQRAAVVPQEHQGVPQEPQGLPDQQASRSALKRLTEEVQWLRLSLQEMRPWITEVPRVFAGPWTRSEARPQSPMSEAVGSPSERLRALFRTRARRVAEMEAQSRALQLRGEELSRRLQVVACTRGGMSRLFGLEQEIRELQAEAGRTRGALEVLGARIQELQAEPGNPLSSRREAELYSPVQKANPGTLAAEIRALREAYIRDGGRDPGVLGQIWQLQVEASALELQRSQTRRGRAGATSGELPVVEAENRRLEAEILALQMQRGRAPLGPQDLRLLGDASLQPKGRRDPPLLPPPVAPPLPPLPGFSEPQLPGTMTRNLGLDSHFLLPTSDMLGPAPYDPGAGLVIFYDFLRGLEASWIWVQLRTGLARDGRDTGRTTALPPALCLPPPPAPGPMGNCAILASRQPVPRLPPSSSVSLVCELQVWQGLAWARAPQPKAWVSLGLFDQDQRVLSGRWRLPLRALPLDPSLSLGQLNGIPQAGQAELFLRLVNARDAAVQTLAEINPASVHEYQYPPPVSSTSSLEASFLTPAVGFADPPPRTEEPLSGVKDRDEGLGPHHSSDLPPVSF
# B4: DNAI1 (protein, UniProt Q9UI46 1-699)
# chain: MIPASAKAPHKQPHKQSISIGRGTRKRDEDSGTEVGEGTDEWAQSKATVRPPDQLELTDAELKEEFTRILTANNPHAPQNIVRYSFKEGTYKPIGFVNQLAVHYTQVGNLIPKDSDEGRRQHYRDELVAGSQESVKVISETGNLEEDEEPKELETEPGSQTDVPAAGAAEKVTEEELMTPKQPKERKLTNQFNFSERASQTYNNPVRDRECQTEPPPRTNFSATANQWEIYDAYVEELEKQEKTKEKEKAKTPVAKKSGKMAMRKLTSMESQTDDLIKLSQAAKIMERMVNQNTYDDIAQDFKYYDDAADEYRDQVGTLLPLWKFQNDKAKRLSVTALCWNPKYRDLFAVGYGSYDFMKQSRGMLLLYSLKNPSFPEYMFSSNSGVMCLDIHVDHPYLVAVGHYDGNVAIYNLKKPHSQPSFCSSAKSGKHSDPVWQVKWQKDDMDQNLNFFSVSSDGRIVSWTLVKRKLVHIDVIKLKVEGSTTEVPEGLQLHPVGCGTAFDFHKEIDYMFLVGTEEGKIYKCSKSYSSQFLDTYDAHNMSVDTVSWNPYHTKVFMSCSSDWTVKIWDHTIKTPMFIYDLNSAVGDVAWAPYSSTVFAAVTTDGKAHIFDLAINKYEAICNQPVAAKKNRLTHVQFNLIHPIIIVGDDRGHIISLKLSPNLRKMPKEKKGQEVQKGPAVEIAKLDKLLNLVREVKIKT
# B5: IFT81 (endogenous, human airway epithelial cells) (protein, UniProt Q8WYA0 1-676)
# chain: MSDQIKFIMDSLNKEPFRKNYNLITFDSLEPMQLLQVLSDVLAEIDPKQLVDIREEMPEQTAKRMLSLLGILKYKPSGNATDMSTFRQGLVIGSKPVIYPVLHWLLQRTNELKKRAYLARFLIKLEVPSEFLQDETVADTNKQYEELMEAFKTLHKEYEQLKISGFSTAEIRKDISAMEEEKDQLIKRVEHLKKRVETAQNHQWMLKIARQLRVEKEREEYLAQQKQEQKNQLFHAVQRLQRVQNQLKSMRQAAADAKPESLMKRLEEEIKFNLYMVTEKFPKELENKKKELHFLQKVVSEPAMGHSDLLELESKINEINTEINQLIEKKMMRNEPIEGKLSLYRQQASIISRKKEAKAEELQEAKEKLASLEREASVKRNQTREFDGTEVLKGDEFKRYVNKLRSKSTVFKKKHQIIAELKAEFGLLQRTEELLKQRHENIQQQLQTMEEKKGISGYSYTQEELERVSALKSEVDEMKGRTLDDMSEMVKKLYSLVSEKKSALASVIKELRQLRQKYQELTQECDEKKSQYDSCAAGLESNRSKLEQEVRRLREECLQEESRYHYTNCMIKNLEVQLRRATDEMKAYISSDQQEKRKAIREQYTKNTAEQENLGKKLREKQKVIRESHGPNMKQAKMWRDLEQLMECKKQCFLKQQSQTSIGQVIQEGGEDRLIL
# B6: ODAD4 (protein, UniProt Q96NG3 1-672)
# chain: MSDPEGETLRSTFPSYMAEGERLYLCGEFSKAAQSFSNALYLQDGDKNCLVARSKCFLKMGDLERSLKDAEASLQSDPAFCKGILQKAETLYTMGDFEFALVFYHRGYKLRPDREFRVGIQKAQEAINNSVGSPSSIKLENKGDLSFLSKQAENIKAQQKPQPMKHLLHPTKGEPKWKASLKSEKTVRQLLGELYVDKEYLEKLLLDEDLIKGTMKGGLTVEDLIMTGINYLDTHSNFWRQQKPIYARERDRKLMQEKWLRDHKRRPSQTAHYILKSLEDIDMLLTSGSAEGSLQKAEKVLKKVLEWNKEEVPNKDELVGNLYSCIGNAQIELGQMEAALQSHRKDLEIAKEYDLPDAKSRALDNIGRVFARVGKFQQAIDTWEEKIPLAKTTLEKTWLFHEIGRCYLELDQAWQAQNYGEKSQQCAEEEGDIEWQLNASVLVAQAQVKLRDFESAVNNFEKALERAKLVHNNEAQQAIISALDDANKGIIRELRKTNYVENLKEKSEGEASLYEDRIITREKDMRRVRDEPEKVVKQWDHSEDEKETDEDDEAFGEALQSPASGKQSVEAGKARSDLGAVAKGLSGELGTRSGETGRKLLEAGRRESREIYRRPSGELEQRLSGEFSRQEPEELKKLSEVGRREPEELGKTQFGEIGETKKTGNEMEKEYE
# B7: CFAP57 (protein, UniProt Q96MR6 1-1250)
# chain: MSAVVAQTLHVFGLRSHVANNIFYFDEQIIIFPSGNHCVKYNVDQKWQKFIPGSEKSQGMLALSISPNRRYLAISETVQEKPAITIYELSSIPCRKRKVLNNFDFQVQKFISMAFSPDSKYLLAQTSPPESNLVYWLWEKQKVMAIVRIDTQNNPVYQVSFSPQDNTQVCVTGNGMFKLLRFAEGTLKQTSFQRGEPQNYLAHTWVADDKIVVGTDTGKLFLFESGDQRWETSIMVKEPTNGSKSLDVIQESESLIEFPPVSSPLPSYEQMVAASSHSQMSMPQVFAIAAYSKGFACSAGPGRVLLFEKMEEKDFYRESREIRIPVDPQSNDPSQSDKQDVLCLCFSPSEETLVASTSKNQLYSITMSLTEISKGEPAHFEYLMYPLHSAPITGLATCIRKPLIATCSLDRSIRLWNYETNTLELFKEYQEEAYSISLHPSGHFIVVGFADKLRLMNLLIDDIRSFKEYSVRGCGECSFSNGGHLFAAVNGNVIHVYTTTSLENISSLKGHTGKIRSIVWNADDSKLISGGTDGAVYEWNLSTGKRETECVLKSCSYNCVTVSPDAKIIFAVGSDHTLKEIADSLILREISAFDVTYTAIVISHSGRMMFVGTSVGTIRAMKYPLPLQKEFNEYQAHAGPITKMLLTFDDQFLLTAAEDGCLFTWKVFDKDGRGIKREREVGFAEEVLVTKTDMEEKAQVMLELKTRVEELKMENEYQLRLKDMNYSEKIKELTDKFIQEMESLKTKNQVLRTEKEKQDVYHHEHIEDLLDKQSRELQDMECCNNQKLLLEYEKYQELQLKSQRMQEEYEKQLRDNDETKSQALEELTEFYEAKLQEKTTLLEEAQEDVRQQLREFEETKKQIEEDEDREIQDIKTKYEKKLRDEKESNLRLKGETGIMRKKFSSLQKEIEERTNDIETLKGEQMKLQGVIKSLEKDIQGLKREIQERDETIQDKEKRIYDLKKKNQELGKFKFVLDYKIKELKKQIEPRENEIRVMKEQIQEMEAELENFHKQNTQLELNITELWQKLRATDQEMRRERQKERDLEALVKRFKTDLHNCVAYIQEPRLLKEKVRGLFEKYVQRADMVEIAGLNTDLQQEYTRQREHLERNLATLKKKVVKEGELHRTDYVRIMQENVSLIKEINELRRELKFTRSQVYDLEAALKLTKKVRPQEVSETEPSRDMLSTAPTARLNEQEETGRIIEMQRLEIQRLRDQIQEQEQVTGFHTLAGVRLPSLSNSEVDLEVKTN
# B8: C1ORF87 (protein, UniProt Q8N0U7 1-546)
# chain: MSSAWKTPRGSDAMPEIMVKIIGSKHFQYLVEKPKIKENDSLKTETQTMHQKPMTDNARQMSRDTPVPINFTDQQTTDNPDDVKEKKHPENNQKSENNQKLLTGANSSRFLDGNIPSQANVHCSSVPTGDQSLSYVHGIPRRKLRDWSLEQMVRGSSDQPEDIGQSPSGTTNEDAFLLALVRRELKSRPLSSNLLEKLQKELKILDPISSGFLLQSQLSRLFLKHEVPLQLPTVKILCQRFSKRGSPEMVNYEKLLWFLNSAASDYPQQNKAAADLRKTESHGTHSQSTPPQHSSSQPEVNRSLLEILKMALRTTNGRLNIDNLNLSFRKEDRSFSGCLPLPKVRAICGKHGLYLTLSLLETLLNHQDLGYQNEIKWQNFVEMLTRASSDLLSDLPTGKNEKKAPAPPMEPEVPEMSQSKTEHMKTPEEELQPESSPAETSACKDPLKPLKIRPVSQPFVNPAVKNKAEECETWIDRFRKLENALYLCDLSNTGVLEKERARRLIHNYNLIYNLSLSPQKIDQALRRFRSGENMLLEPALRYLKEL
# B9: IFT74 (endogenous, human airway epithelial cells) (protein, UniProt Q96LB3 1-600)
# chain: MASNHKSSAARPVSRGGVGLTGRPPSGIRPLSGNIRVATAMPPGTARPGSRGCPIGTGGVLSSQIKVAHRPVTQQGLTGMKTGTKGPQRQILDKSYYLGLLRSKISELTTEVNKLQKGIEMYNQENSVYLSYEKRAETLAVEIKELQGQLADYNMLVDKLNTNTEMEEVMNDYNMLKAQNDRETQSLDVIFTERQAKEKQIRSVEEEIEQEKQATDDIIKNMSFENQVKYLEMKTTNEKLLQELDTLQQQLDSQNMKKESLEAEIAHSQVKQEAVLLHEKLYELESHRDQMIAEDKSIGSPMEEREKLLKQIKDDNQEIASMERQLTDTKEKINQFIEEIRQLDMDLEEHQGEMNQKYKELKKREEHMDTFIETFEETKNQELKRKAQIEANIVALLEHCSRNINRIEQISSITNQELKMMQDDLNFKSTEVQKSQSTAQNLTSDIQRLQLDLQKMELLESKMTEEQHSLKSKIKQMTTDLEIYNDLPALKSSGEEKIKKLHQERMILSTHRNAFKKIMEKQNIEYEALKTQLQENETHSQLTNLERKWQHLEQNNFAMKEFIATKSQESDYQPIKKNVTKQIAEYNKTIVDALHSTSGN
# Target: DNAAF9 (endogenous, human airway epithelial cells) (human (endogenous in HAECs)) (UniProt Q5TEA3)
# Test: affinity purification with mass spectrometry; endogenous DNAAF9 immunoprecipitated from HAEC whole-cell lysates at ALI day 19 (ECs) and day 45 (MCs), anti-DNAAF9 against isotype-matched IgG, protein A/G beads, TMT labeling and MS
row,binding,Binder
1,binds,B1
2,binds,B2
3,binds,B3
4,binds,B4
5,binds,B5
6,binds,B6
7,binds,B7
8,binds,B8
9,binds,B9
